Measurements as given in paper PMC10916291, “Cocrystals of a coumarin derivative: an efficient approach towards anti-leishmanial cocrystals against MIL-resistant Leishmania tropica” (IUCrJ, 2024).

Tested on: 3T3 (normal mouse fibroblast) cell line
Conditions: MTT, 48 h, 1-30 µM
Method: In vitro biological activities of CU, coformers and synthesized cocrystals 2–6 were evaluated for their MIL-resistant L. tropica promastigotes and cytotoxicity against […]. Detailed methodologies of the biological assays are provided in the supporting information.
2. Cytotoxicity assay Protocol:
Cy totoxicity o f compounds was evaluated in 96-well flat-bo ttomed micro plates by using the standard MTT (3-[4, 5-dimethylthiazole-2-y l]-2 , 5-d iph eny l-tetrazolium bromide) colorimetric assay. For this purpose, 3T3 (mouse fibroblast) cells were cultured in Dulb ecco’s Modified Eagle Medium, supplemented with 5% of fetal bovine serum (FBS), 100 IU/mL of penicillin and 100 µg / m L of strep tomy cin in 75 cm2 flasks, and kept in 5% CO2 incubator at 37° C.
Exponentially growing cells were harvested, counted with haemocytometer, and diluted with a particular medium. Cell culture with the concentration of 5x10^4 cells/mL was p rep ared and introduced (100 µL/well) into 96-well plates. […]
Subsequently, 100 µL of DMSO was added to each well. The extent of MTT reduction to formazan within cells was calculated by measuring the absorbance at 540 nm, using a micro-plate reader (Spectra Max p lus, Molecular Devices, USA). […] The percent inhibition was calculated by using the fo llo wing formula: […]

Cc1cccc(N)n1 [Cocrystal 1d, 2-amino-6-methylpyridine] was tested. Which “Cytotoxic activity 3T3 cell line (IC50 = µM ± SEM)” value did it give?
Its value is “Non-cytotoxic”.
